In article PMC5700166:

Legend:
[1] = test system: Ap-NF-kB delta427 (Exaiptasia pallida (Aiptasia)); assay: EMSA; conditions: 293 cell extract, high level, comparable to Nv-NF-kB; EMSA 30 min at 30 °C: 293 lysates and anemone lysates in either 10 mM Tris pH 7.4, 50 mM NaCl, 1 mM DTT, 1 mM EDTA; protein in a lysate after overexpression; protein details: FLAG (N-terminal); label: 32P (5' end, T4 PNK)
[2] = test system: Ap-NF-kB full length (Exaiptasia pallida (Aiptasia)); assay: EMSA; conditions: 293 cell extract, no high level of binding, unlike delta427; EMSA 30 min at 30 °C: 293 lysates and anemone lysates in either 10 mM Tris pH 7.4, 50 mM NaCl, 1 mM DTT, 1 mM EDTA; protein in a lysate after overexpression; protein details: FLAG (N-terminal); label: 32P (5' end, T4 PNK)

“TCGAGAGGTCGGGGAATTCCCCCCCCG / TCGACGGGGGGGGAATTCCCCGACCTC [NF-kB-site consensus EMSA probe]”: binds [1]; binds more weakly [2].

For at least one entry, the source does not settle the construct or the ends of the probe. At least one result comes from cells or an extract, where the contact may be indirect. For some assays here: The comparison behind a weaker result is the experiment's own reference, which may not be listed here.
